This note sets out measurements from paper PMC5419078.

Chains of the proteins cited; added tags and fusions are not shown. Residues count along the entry.
UniProt P20333, residues 23-257: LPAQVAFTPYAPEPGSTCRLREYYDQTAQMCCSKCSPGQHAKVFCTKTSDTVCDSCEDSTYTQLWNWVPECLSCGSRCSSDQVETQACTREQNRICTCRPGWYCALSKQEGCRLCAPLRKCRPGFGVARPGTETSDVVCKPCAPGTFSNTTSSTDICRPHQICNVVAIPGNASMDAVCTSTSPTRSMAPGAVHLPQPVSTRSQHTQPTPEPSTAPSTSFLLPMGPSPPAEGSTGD

These are yes or no findings as the source states them, for the method shown.

The experiment deals with Alexa Fluor 488-labeled etanercept (human) (UniProt P20333). Briefly: AUC; FDS-SV, 25 nM Alexa Fluor 488-labeled antagonist with 0–25 nM TNF in PBS with 0.1 mg/mL lysozyme, incubated at 20°C for 2 hours, 42,000 rpm; both purified.

As to “Alexa Fluor 488-labeled etanercept (from UniProt P20333 23-257) (Fc fusion)”, the binding result was “no binding (tested: 25 nM)”.
